# The supplement of paper PMC8326762, “A Small Molecule Inhibitor of Pex3–Pex19 Interaction Disrupts Glycosome Biogenesis and Causes Lethality in Trypanosoma brucei” (Frontiers in Cell and Developmental Biology, 2021)
# Counter-ions that a name gives are not always drawn. The list shows a part of the results. The data scatter; read single values as rough.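 Optical density at 600 nm measured yeast growth. Because the two-hybrid strains grew without histidine, growth required Pex3–Pex19 binding. Trypanosome selectivity meant a compound inhibited the trypanosome-pair strain's growth by more than 65% but the human-pair strain's by less than 65%.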
# Columns and labels:
# [1] = test system: Saccharomyces cerevisiae HF7c pdr5Δ; test: general growth inhibition of yeast HF7c pdr5Δ in -Leu -Trp medium, relative to DMSO; higher = stronger general growth inhibition; details: 100 µM; 24 h
# [2] = test system: human PEX3-PEX19 interaction (yeast two-hybrid); test: growth inhibition of yeast two-hybrid strain reporting HsPex3-HsPex19 interaction, relative to DMSO; higher = stronger inhibition of human Pex3-Pex19 interaction / growth; details: 100 µM; 24 h; 3-aminotriazole 10 mM
# [3] = test system: T. brucei Pex3-Pex19 interaction (yeast two-hybrid); test: growth inhibition of yeast two-hybrid strain reporting TbPex3-TbPex19 interaction, relative to DMSO; higher = stronger inhibition of T. brucei Pex3-Pex19 interaction / growth; details: 100 µM; 24 h
smiles,measurement,setting,value
N[C@@H](Cn1ccc(=O)c(O)c1)C(=O)O [L-Mimosine from Koa hoale seeds],general growth inhibition,[1],53.1%
same,growth inhibition,[2],51.3%
same,growth inhibition,[3],67.9%
Nc1ccc(-c2ccc3ccccc3n2)cc1 [BF-170 hydrochloride],general growth inhibition,[1],45.1%
same,growth inhibition,[2],42.4%
same,growth inhibition,[3],55.1%
O=C(CCc1ccc(O)cc1)c1c(O)cc(O)cc1O [Phloretin],general growth inhibition,[1],38.3%
same,growth inhibition,[2],42.3%
same,growth inhibition,[3],56.5%
CN[C@H](CC(C)C)C(=O)N[C@H]1C(=O)N[C@@H](CC(N)=O)C(=O)N[C@H]2C(=O)N[C@H]3C(=O)N[C@H](C(=O)N[C@H](C(=O)O)c4cc(O)cc(O)c4-c4cc3ccc4O)[C@H](O)c3ccc(c(Cl)c3)Oc3cc2cc(c3O[C@@H]2O[C@H](CO)[C@@H](O)[C@H](O)[C@H]2O[C@H]2C[C@](C)(N)[C@H](O)[C@H](C)O2)Oc2ccc(cc2Cl)[C@H]1O [Vancomycin hydrochloride from Streptomyces orientalis],general growth inhibition,[1],47.8%
same,growth inhibition,[2],39.1%
same,growth inhibition,[3],59.6%
O=P(O)(O)C(Cl)(Cl)P(=O)(O)O [Clodronic acid],general growth inhibition,[1],28.6%
same,growth inhibition,[2],33.5%
same,growth inhibition,[3],58.3%
CSc1ccc(C(=O)c2[nH]c(=O)[nH]c2C)cc1 [Enoximone],general growth inhibition,[1],2.07%
same,growth inhibition,[2],4.29%
same,growth inhibition,[3],28.8%
Cc1cnc(C(=O)NCCc2ccc(S(=O)(=O)NC(=O)NC3CCCCC3)cc2)cn1 [Glipizide],general growth inhibition,[1],32.4%
same,growth inhibition,[2],22.9%
same,growth inhibition,[3],23.4%
CC(C)C[C@H](NC(=O)[C@H]1O[C@@H]1C(=O)O)C(=O)NCCCCN=C(N)N,general growth inhibition,[1],19.2%
same,growth inhibition,[2],34.6%
same,growth inhibition,[3],49.2%
COCCOc1cc2nc[nH]c(=O)c2cc1OCCOC,general growth inhibition,[1],49%
same,growth inhibition,[2],44.3%
same,growth inhibition,[3],64.8%
"c1ccc(-c2ccccn2)nc1 [2,2'-Bipyridyl]",general growth inhibition,[1],22.1%
same,growth inhibition,[2],22.4%
same,growth inhibition,[3],54.3%
O=C(O)C1(C(=O)O)CCC1.[NH2-].[NH2-].[Pt+2] [Carboplatin],general growth inhibition,[1],22%
same,growth inhibition,[2],39.1%
same,growth inhibition,[3],49.1%
COc1ccc(CC(C)NCC(O)c2ccc(O)c(NC=O)c2)cc1 (configuration not stated) [Formoterol],general growth inhibition,[1],26.6%
same,growth inhibition,[2],44.2%
same,growth inhibition,[3],52.5%
CC(C)(C)NC(=O)[C@@H]1CN(Cc2cccnc2)CCN1C[C@@H](O)C[C@@H](Cc1ccccc1)C(=O)N[C@H]1c2ccccc2C[C@H]1O [Indinavir sulfate salt hydrate],general growth inhibition,[1],51.6%
same,growth inhibition,[2],44.2%
same,growth inhibition,[3],56.1%
COCCOC(=O)C1=C(C)NC(C)=C(C(=O)OC/C=C/c2ccccc2)C1c1cccc([N+](=O)[O-])c1 (configuration not stated) [Cilnidipine],general growth inhibition,[1],26.3%
same,growth inhibition,[2],17.9%
same,growth inhibition,[3],34.5%
NC1CCN(O)C1=O (racemic),general growth inhibition,[1],41.1%
same,growth inhibition,[2],36.1%
same,growth inhibition,[3],63.6%
N#CC(=C(/N)Sc1ccccc1N)/C(C#N)=C(/N)Sc1ccccc1N,general growth inhibition,[1],63.9%
same,growth inhibition,[2],46.8%
same,growth inhibition,[3],54%
Nc1nc(N)c2nc(CNc3ccc(C(=O)N[C@@H](CCC(=O)O)C(=O)O)cc3)cnc2n1 [Aminopterin],general growth inhibition,[1],43.8%
same,growth inhibition,[2],44.7%
same,growth inhibition,[3],64.9%
Cc1cccc(-c2[nH]ncc2-c2ccc3ncccc3n2)n1,general growth inhibition,[1],25.6%
same,growth inhibition,[2],25.9%
same,growth inhibition,[3],55.5%
O=C1CCC(N2C(=O)c3ccccc3C2=O)C(=O)N1 (racemic) [(±)-Thalidomide],general growth inhibition,[1],47%
same,growth inhibition,[2],50.2%
same,growth inhibition,[3],69.1%
Cc1nnc(C(C)C)n1C1C[C@H]2CC[C@@H](C1)N2CC[C@H](NC(=O)C1CCC(F)(F)CC1)c1ccccc1 (stereo in doubt) [Maraviroc],general growth inhibition,[1],46.5%
same,growth inhibition,[2],43%
same,growth inhibition,[3],61.3%
CC(C)NCC(O)c1ccc(O)c(O)c1 (racemic) [(±)-Isoproterenol hydrochloride],general growth inhibition,[1],23.4%
same,growth inhibition,[2],27.5%
same,growth inhibition,[3],59%
NCCC[C@](N)(C(=O)O)C(F)F (racemic) [DL-alpha-Difluoromethylornithine hydrochloride],general growth inhibition,[1],49.6%
same,growth inhibition,[2],35.7%
same,growth inhibition,[3],66.1%
NC(=O)c1ccccc1 [Benzamide],general growth inhibition,[1],32.9%
same,growth inhibition,[2],35.1%
same,growth inhibition,[3],53.9%
Nc1ncnc2c1nc(Sc1ccc(Cl)cc1)n2C1OC2COP(=O)(O)O[C@@H]2[C@@H]1O (some centres not stated) [8-(4-Chlorophenylthio)-cAMP sodium],general growth inhibition,[1],52.3%
same,growth inhibition,[2],42.3%
same,growth inhibition,[3],58.9%
COc1ccccc1N1CCN(CCN(C(=O)C2CCCCC2)c2ccccn2)CC1,general growth inhibition,[1],52.6%
same,growth inhibition,[2],9.53%
same,growth inhibition,[3],69.2%
O=C(Nc1ccccc1)c1cc([N+](=O)[O-])ccc1Cl,general growth inhibition,[1],47.2%
same,growth inhibition,[2],40.1%
same,growth inhibition,[3],50%
NC(CCCP(=O)(O)O)C(=O)O (racemic) [(±)-2-Amino-5-phosphonopentanoic acid],general growth inhibition,[1],45.6%
same,growth inhibition,[2],39.9%
same,growth inhibition,[3],57.1%
"CCCn1c(=O)c2[nH]c(C3CCCC3)nc2n(CCC)c1=O [8-Cyclopentyl-1,3-dipropylxanthine]",general growth inhibition,[1],22.8%
same,growth inhibition,[2],22.5%
same,growth inhibition,[3],39.4%
CN(c1ccccc1CNc1nc(Nc2ccc3c(c2)CC(=O)N3)ncc1C(F)(F)F)S(C)(=O)=O,general growth inhibition,[1],29.9%
same,growth inhibition,[2],25.9%
same,growth inhibition,[3],53.1%
CCn1cc(C(=O)O)c(=O)c2cc(F)c(N3CCNC(C)C3)c(F)c21 (configuration not stated) [Lomefloxacin hydrochloride],general growth inhibition,[1],53.2%
same,growth inhibition,[2],51.5%
same,growth inhibition,[3],68.9%
CCOc1nc2cccc(C(=O)OC(C)OC(=O)OC3CCCCC3)c2n1Cc1ccc(-c2ccccc2-c2nn[nH]n2)cc1 (configuration not stated) [Candesartan cilexetil],general growth inhibition,[1],37.6%
same,growth inhibition,[2],25.1%
same,growth inhibition,[3],35.4%
O=C(Nc1ccncc1)c1cc([N+](=O)[O-])ccc1Cl,general growth inhibition,[1],45.2%
same,growth inhibition,[2],18%
same,growth inhibition,[3],67.1%
C=CCNc1ncnc2ccc(Br)cc12,general growth inhibition,[1],50.6%
same,growth inhibition,[2],39.6%
same,growth inhibition,[3],67.6%
CN1CCN(CC(=O)N2c3ccccc3C(=O)Nc3cccnc32)CC1 [Pirenzepine dihydrochloride],general growth inhibition,[1],24.8%
same,growth inhibition,[2],13.5%
same,growth inhibition,[3],45%
CCCCNC(=O)NS(=O)(=O)c1ccc(C)cc1 [Tolbutamide],general growth inhibition,[1],48.3%
same,growth inhibition,[2],47.8%
same,growth inhibition,[3],63.1%
O=C1N=C(O)NC1(c1ccccc1)c1ccccc1 [Phenytoin sodium],general growth inhibition,[1],16.3%
same,growth inhibition,[2],17.4%
same,growth inhibition,[3],35%
C[C@H](Cc1ccc(O)c(O)c1)[C@@H](C)Cc1ccc(O)c(O)c1,general growth inhibition,[1],45%
same,growth inhibition,[2],36.5%
same,growth inhibition,[3],35.1%
O=C(Nc1ccc2[nH]ncc2c1)C1CCC1 [Rhodblock 6],general growth inhibition,[1],29.4%
same,growth inhibition,[2],38.2%
same,growth inhibition,[3],54.4%
CCNC(=O)[C@H]1O[C@@H](n2cnc3c(N)nc(NCCc4ccc(CCC(=O)O)cc4)nc32)[C@H](O)[C@@H]1O,general growth inhibition,[1],14.9%
same,growth inhibition,[2],13.5%
same,growth inhibition,[3],31.7%
NC(=O)OCC(COC(N)=O)c1ccccc1 [Felbamate],general growth inhibition,[1],38.9%
same,growth inhibition,[2],40%
same,growth inhibition,[3],60.2%
COc1ccc([C@@H]2Sc3ccccc3N(CCN(C)C)C(=O)[C@@H]2OC(C)=O)cc1 [Diltiazem hydrochloride],general growth inhibition,[1],14.2%
same,growth inhibition,[2],13%
same,growth inhibition,[3],33.1%
CC(N)=O [Acetamide],general growth inhibition,[1],13.7%
same,growth inhibition,[2],11.7%
same,growth inhibition,[3],36.7%
CC1CNc2c(cccc2S(=O)(=O)N[C@@H](CCCNC(=N)N)C(=O)N2CC[C@@H](C)C[C@@H]2C(=O)O)C1 (some centres not stated) [Argatroban monohydrate],general growth inhibition,[1],32%
same,growth inhibition,[2],42.2%
same,growth inhibition,[3],49.4%
CCn1ccnc1CC1COc2ccccc2O1 (configuration not stated) [Imiloxan hydrochloride],general growth inhibition,[1],35.9%
same,growth inhibition,[2],53.1%
same,growth inhibition,[3],67%
COc1ccc(/C=C/c2nc(NCCCN(C)C)c3ccccc3n2)cc1,general growth inhibition,[1],8.66%
same,growth inhibition,[2],4.53%
same,growth inhibition,[3],37.1%
CC(=O)N[C@@H](CS)C(=O)O [N-Acetyl-L-Cysteine],general growth inhibition,[1],15.6%
same,growth inhibition,[2],1.67%
same,growth inhibition,[3],35.2%
Nc1nc2ccc(OC(F)(F)F)cc2s1 [Riluzole],general growth inhibition,[1],69.3%
same,growth inhibition,[2],72.3%
same,growth inhibition,[3],60.1%
C=CCN1CCc2c(cc(O)c(O)c2Cl)C(c2ccccc2)C1 (racemic) [(±)-Chloro-APB hydrobromide],general growth inhibition,[1],19.5%
same,growth inhibition,[2],22.1%
same,growth inhibition,[3],36.9%
Nc1nc2c(nc(Br)n2C2OC3COP(=O)(O)O[C@@H]3C2O)c(=O)[nH]1 (some centres not stated) [8-Bromo-cGMP sodium],general growth inhibition,[1],53.5%
same,growth inhibition,[2],36.7%
same,growth inhibition,[3],60.2%
NC(=O)C(=O)O [Sodium Oxamate],general growth inhibition,[1],55%
same,growth inhibition,[2],53.5%
same,growth inhibition,[3],60%
O=C(CCCCCN1CCN(c2ccccc2-c2ccccc2)CC1)NC1CCCc2ccccc21 (configuration not stated) [LP 12 hydrochloride hydrate],general growth inhibition,[1],81.8%
same,growth inhibition,[2],78%
same,growth inhibition,[3],76.8%
CC(C)[C@H]1c2ccc(F)cc2CC[C@@]1(CCN(C)CCCc1nc2ccccc2[nH]1)OC(=O)C1CC1,general growth inhibition,[1],46.4%
same,growth inhibition,[2],72.8%
same,growth inhibition,[3],73.7%
Cc1cccc(-c2[nH]c(C(C)(C)C)nc2-c2ccc3nccnc3c2)n1,general growth inhibition,[1],22.6%
same,growth inhibition,[2],34.6%
same,growth inhibition,[3],50.6%
Clc1ccc2c(c1)N=C(N1CCNCC1)c1ccccc1N2 [N-Desmethylclozapine],general growth inhibition,[1],29.2%
same,growth inhibition,[2],33%
same,growth inhibition,[3],53.6%
CNCCC(Oc1ccccc1OC)c1ccccc1 (configuration not stated) [Nisoxetine hydrochloride],general growth inhibition,[1],41.6%
same,growth inhibition,[2],33.4%
same,growth inhibition,[3],60.9%
CC(C)NCC(O)COc1ccc(CCOCC2CC2)cc1 (configuration not stated) [Betaxolol hydrochloride],general growth inhibition,[1],43.4%
same,growth inhibition,[2],47.9%
same,growth inhibition,[3],63.6%
O=c1ccc2ccc(O)c(O)c2o1 [Daphnetin],general growth inhibition,[1],13.7%
same,growth inhibition,[2],12.6%
same,growth inhibition,[3],31.4%
Clc1cccc(Cl)c1NC1=NCCN1 [Clonidine hydrochloride],general growth inhibition,[1],42.1%
same,growth inhibition,[2],42.6%
same,growth inhibition,[3],63.4%
"CC1(C)C(=O)N(CCN2CCC(C(=O)c3ccc(F)cc3)CC2)c2ccccc21 [LY-310,762 hydrochloride]",general growth inhibition,[1],52.4%
same,growth inhibition,[2],30.3%
same,growth inhibition,[3],60.5%
CCC1(c2ccccc2)C(=O)NCNC1=O [Primidone],general growth inhibition,[1],45.9%
same,growth inhibition,[2],46.4%
same,growth inhibition,[3],53.5%
C=C(c1ccc(C(=O)O)cc1)c1cc2c(cc1C)C(C)(C)CCC2(C)C [Bexarotene],general growth inhibition,[1],31.5%
same,growth inhibition,[2],8.9%
same,growth inhibition,[3],41.9%
CC(C)NCC(O)c1cc(O)cc(O)c1 (configuration not stated) [Metaproterenol hemisulfate],general growth inhibition,[1],46.7%
same,growth inhibition,[2],41.6%
same,growth inhibition,[3],59.6%
CCc1cncnc1N1CCN(Cc2nc3ccc(C(F)(F)F)cc3[nH]2)CC1,general growth inhibition,[1],4.57%
same,growth inhibition,[2],-7.55%
same,growth inhibition,[3],20.9%
"CCCc1c(-c2ccc(O)cc2)nn(-c2ccc(O)cc2)c1-c1ccc(O)cc1 [1,3,5-tris(4-hydroxyphenyl)-4-propyl-1H-pyrazole]",general growth inhibition,[1],21.9%
same,growth inhibition,[2],15.6%
same,growth inhibition,[3],42.5%

# Reprinted at random: 3 records from the list
smiles,measurement,setting,value
O=C(CCc1ccc(O)cc1)c1c(O)cc(O)cc1O [Phloretin],growth inhibition,[2],42.3%
O=C1N=C(O)NC1(c1ccccc1)c1ccccc1 [Phenytoin sodium],general growth inhibition,[1],16.3%
O=P(O)(O)C(Cl)(Cl)P(=O)(O)O [Clodronic acid],general growth inhibition,[1],28.6%
